PubChem BioAssay AID1671195, Yale University | 2021

- Screen: 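Regulators of LDL receptor activity judged by labelled LDL uptake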 (primary screen)
- Cells: human Huh7 hepatoma cells
- Knock-down reagent: siRNA pool against human genes, 18 nM
- Timing: about 2 to 2.5 days of knockdown, then 8 h LDL uptake
- Challenge: DiI-labelled LDL at 30 µg/ml for 8 h, in lipoprotein-deficient serum medium
- Read-out: 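Per-cell DiI-LDL intensity by automated imaging; well means scaled to the plate median and given as a robust z-score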
- Reading the numbers: robust z-score: higher = more LDL uptake after knockdown
- Hit rule: 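a gene counts as active if at least two replicate z-scores exceed ±2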
This is an unselected part of about 22,000 reagents tested. Of all reagents, about 1,510 (6.9%) were called active. 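Active includes knockdowns raising or lowering LDL uptake; positive z-scores mean more uptake, negative mean less.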

Knock-down of GATAD2B resulted in: robust z-score, replicate 1 = 1.36; robust z-score, replicate 2 = 1.86; robust z-score, replicate 3 = 2.18; inactive.
Against ALPI, the entry reads robust z-score, replicate 1 = 0.351; robust z-score, replicate 2 = 0.123; robust z-score, replicate 3 = 0.388; inactive.
Silencing of LOC285638 resulted in: robust z-score, replicate 1 = -0.254; robust z-score, replicate 2 = -0.193; robust z-score, replicate 3 = -0.226; inactive.
Depletion of LOC340893 (retired record) resulted in: robust z-score, replicate 1 = -0.582; robust z-score, replicate 2 = -0.598; robust z-score, replicate 3 = -0.231; inactive.
Depletion of REL came out at: robust z-score, replicate 1 = -1.74; robust z-score, replicate 2 = -1.13; robust z-score, replicate 3 = -1.76; inactive.
Knock-down of SDR39U1 came out at: robust z-score, replicate 1 = 0.185; robust z-score, replicate 2 = 0.662; robust z-score, replicate 3 = -0.0598; inactive.
CRYBA1 scored robust z-score, replicate 1 = -0.232; robust z-score, replicate 2 = 0.359; robust z-score, replicate 3 = -1.5; inactive.
After knock-down of LOC389469 (retired record), the record shows robust z-score, replicate 1 = -0.199; robust z-score, replicate 2 = 0.0956; robust z-score, replicate 3 = -0.194; inactive.
With knock-down of SIX2, the screen gave robust z-score, replicate 1 = 0.142; robust z-score, replicate 2 = -1.33; robust z-score, replicate 3 = 0.756; inactive.
For MMP3, the values are robust z-score, replicate 1 = 0.0112; robust z-score, replicate 2 = 1.37; robust z-score, replicate 3 = 0.325; inactive.
Knock-down of THUMPD1P1 resulted in: robust z-score, replicate 1 = -0.257; robust z-score, replicate 2 = 0.0963; robust z-score, replicate 3 = -0.015; inactive.
LOC730007 scored robust z-score, replicate 1 = 0.116; robust z-score, replicate 2 = 0.647; robust z-score, replicate 3 = 0.516; inactive.
After knock-down of LMLN, the screen gave robust z-score, replicate 1 = 1.09; robust z-score, replicate 2 = 0.835; robust z-score, replicate 3 = 1.59; inactive.
After knock-down of C1QB, the record shows robust z-score, replicate 1 = 1.4; robust z-score, replicate 2 = 2.43; robust z-score, replicate 3 = 1.88; inactive.
Depletion of SLC50A1 resulted in: robust z-score, replicate 1 = -0.297; robust z-score, replicate 2 = 0.397; robust z-score, replicate 3 = -0.425; inactive.
Against MSANTD1 the deposit lists robust z-score, replicate 1 = -0.708; robust z-score, replicate 2 = -0.828; robust z-score, replicate 3 = -0.359; inactive.
Against SURF4, the values are robust z-score, replicate 1 = 1.89; robust z-score, replicate 2 = 1.9; robust z-score, replicate 3 = 2.19; active.
ANAPC11 scored robust z-score, replicate 1 = -0.978; robust z-score, replicate 2 = -1.6; robust z-score, replicate 3 = -1.7; inactive.
With knock-down of SNAI3-AS1 the results were robust z-score, replicate 1 = -0.634; robust z-score, replicate 2 = -0.0655; robust z-score, replicate 3 = -0.785; inactive.
Against SLC35F3, the values are robust z-score, replicate 1 = -1.26; robust z-score, replicate 2 = -0.508; robust z-score, replicate 3 = -0.771; inactive.
Silencing of OAS2 came out at: robust z-score, replicate 1 = -0.118; robust z-score, replicate 2 = -0.776; robust z-score, replicate 3 = -0.533; inactive.
Knock-down of CD300A came out at: robust z-score, replicate 1 = 0.455; robust z-score, replicate 2 = 0.132; robust z-score, replicate 3 = 0.267; inactive.
Knock-down of COPE came out at: robust z-score, replicate 1 = -0.244; robust z-score, replicate 2 = -0.886; robust z-score, replicate 3 = 0.0645; inactive.
Knock-down of CDAN1 gave: robust z-score, replicate 1 = -0.787; robust z-score, replicate 2 = -0.572; robust z-score, replicate 3 = -0.594; inactive.

Ordered by “robust z-score, replicate 3” (ascending): 2 of the entries above.
LOC730007 → robust z-score, replicate 1 = 0.116; robust z-score, replicate 2 = 0.647; robust z-score, replicate 3 = 0.516; call = inactive
LMLN → robust z-score, replicate 1 = 1.09; robust z-score, replicate 2 = 0.835; robust z-score, replicate 3 = 1.59; call = inactive
